Values of other authors, collected in patent publication US12472213B2, “Strains of Lactobacillus delbrueckii which inhibit Porphyromonas gingivalis” (Trustees of Tufts College, priority 2019, dated 2025).
For at least one compound, name, drawing or mass did not settle the structure.

Test system: Escherichia coli Pox (pyruvate oxidase)
Settings: with phospholipid; literature; cited from earlier work

## CC(=O)C(=O)O [pyruvate]
  change of km for pyruvate on phospholipid activation: decreases
